Test results published in PMC11679068, “Affinity Peptide-Based Circularly Permuted Fluorescent Protein Biosensors for Non-Small Cell Lung Cancer Diagnosis” (Sensors (Basel, Switzerland), 2024).
Results are given in words; binding and its absence hold for the method and conditions named. Some entries that bind do so weakly or less than the wild type.

T1: carcinoembryonic antigen (UniProt P06731 35-685)
T1 construct: carcinoembryonic antigen (CEA), serum tumor marker; also called CEA; CAE
T1 sequence (looked up): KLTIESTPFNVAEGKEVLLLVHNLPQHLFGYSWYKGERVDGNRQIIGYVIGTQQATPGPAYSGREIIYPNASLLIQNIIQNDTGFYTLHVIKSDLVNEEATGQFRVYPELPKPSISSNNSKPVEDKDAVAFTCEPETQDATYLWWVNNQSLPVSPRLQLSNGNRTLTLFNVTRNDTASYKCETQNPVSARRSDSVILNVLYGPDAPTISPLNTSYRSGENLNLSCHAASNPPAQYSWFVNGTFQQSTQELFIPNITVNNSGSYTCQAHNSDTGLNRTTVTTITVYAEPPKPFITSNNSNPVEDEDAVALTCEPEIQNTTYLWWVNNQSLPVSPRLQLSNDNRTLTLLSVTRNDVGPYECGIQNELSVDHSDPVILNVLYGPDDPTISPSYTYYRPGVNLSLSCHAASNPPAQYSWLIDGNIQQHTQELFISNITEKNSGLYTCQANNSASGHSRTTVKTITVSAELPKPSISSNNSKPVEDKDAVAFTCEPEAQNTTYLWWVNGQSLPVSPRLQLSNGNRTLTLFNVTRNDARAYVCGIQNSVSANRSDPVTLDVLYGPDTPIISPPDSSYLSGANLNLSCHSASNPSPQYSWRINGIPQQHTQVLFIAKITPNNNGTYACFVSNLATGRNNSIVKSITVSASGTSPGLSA

B1: synthetic peptide C3 (peptide)
peptide: WSPSALLPSSVT
notes: dodecapeptide C3 from phage display, synthesized; source: synthetic peptide (Fmoc solid phase, Synpeptide Co., HPLC purified)
B2: synthetic peptide C2 (peptide)
peptide: YGVSALSSYVSC
notes: dodecapeptide C2 from phage display, synthesized; source: synthetic peptide (Fmoc solid phase, Synpeptide Co., HPLC purified)
B3: synthetic peptide C4 (peptide)
peptide: HHRLTRSMQLMM
notes: dodecapeptide C4 from phage display, synthesized; source: synthetic peptide (Fmoc solid phase, Synpeptide Co., HPLC purified)

Target: T1, carcinoembryonic antigen
Assay: phage display panning; target protein coated on 96-well plates (100 ug/mL, bicarbonate buffer pH 8.6, 4 C overnight), BSA blocked; Ph.D.-12 library 60 min at room temperature; TBST washes; elution with glycine-HCl pH 2.2; three rounds; 30 colonies sequenced; only the target purified

**Q.** How did the binding turn out when SWFQSDNTLRRP [phage-displayed peptide C13] was run?
**A.** binds

**Q.** How did the binding turn out when B1 was run?
**A.** binds

**Q.** For WSLNSGMFGYQW [phage-displayed peptide C11], which binding is on record?
**A.** binds

**Q.** For ALNGVKGPLRMD [phage-displayed peptide C8], which binding is on record?
**A.** binds

**Q.** How did the binding turn out when DVSPSRNQDRSP [phage-displayed peptide C6] was run?
**A.** binds

**Q.** B2 was tested. Which binding did it give?
**A.** binds

**Q.** With VVGRAMAYSTIP [phage-displayed peptide C1 (…)] as the binder, how does the binding read?
**A.** binds

**Q.** DRGSGVPADELW [phage-displayed peptide C12] was tested. Which binding did it give?
**A.** binds

**Q.** How did the binding turn out when FQAPYWLTLGGE [phage-displayed peptide C5] was run?
**A.** binds

**Q.** B3 was tested. Which binding did it give?
**A.** binds

**Q.** DVTWRTSYSSDS [phage-displayed peptide C10] was tested. Which binding did it give?
**A.** binds

**Q.** For FPRLTALAGPWP [phage-displayed peptide C9], which binding is on record?
**A.** binds

**Q.** How did the binding turn out when VNPFHKFTAGNQ [phage-displayed peptide C7] was run?
**A.** binds

Target: T1, carcinoembryonic antigen
Assay: ELISA; protein (100 ug/mL) coated on 96-well plates, BSA blocked; 10^10 phage particles per well, 37 C, 1 h; detection with HRP anti-M13 antibody, OPD; only the target purified

**Q.** With B1 as the binder, how does the binding read?
**A.** binds

**Q.** Which binding does the source give for B2 here?
**A.** binds

**Q.** How did the binding turn out when B3 was run?
**A.** binds
